According to the supplement of paper PMC4604168 (melanoma cell lines):
This is one part of the list. Repeats are few or missing, and single values can be far off.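 Imaging used 1,536-well plates; nuclei positive for cleaved PARP by antibody were divided by total DNA-stained nuclei to yield the apoptosis fraction. Doses for screening kept most cells viable, and cell lines differ markedly in resting and induced cleaved-PARP levels.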

Tests used:
Assay in all cases: cleaved PARP positive nuclei fraction relative to DMSO control; melanoma cells; higher = more apoptosis
Conditions in all cases: library dose: low library concentration; 72 h
[1] = tested on: A101D
[2] = tested on: A2058
[3] = tested on: A375
[4] = tested on: C32
[5] = tested on: CBRC008 (line from a melanoma biopsy)
[6] = tested on: CBRC014 (line from a melanoma biopsy)
[7] = tested on: CBRC016 (line from a melanoma biopsy)
[8] = tested on: CBRC017 (line from a melanoma biopsy)
[9] = tested on: CBRC034 (line from a melanoma biopsy)
[10] = tested on: COLO792
[11] = tested on: COLO800
[12] = tested on: COLO829
[13] = tested on: G361
[14] = tested on: IPC-298
[15] = tested on: IST-MEL1
[16] = tested on: LOXIMVI
[17] = tested on: MEL-HO

| SMILES | cleaved PARP positive nuclei fraction [1] | cleaved PARP positive nuclei fraction [2] | cleaved PARP positive nuclei fraction [3] | cleaved PARP positive nuclei fraction [4] | cleaved PARP positive nuclei fraction [5] | cleaved PARP positive nuclei fraction [6] | cleaved PARP positive nuclei fraction [7] | cleaved PARP positive nuclei fraction [8] | cleaved PARP positive nuclei fraction [9] | cleaved PARP positive nuclei fraction [10] | cleaved PARP positive nuclei fraction [11] | cleaved PARP positive nuclei fraction [12] | cleaved PARP positive nuclei fraction [13] | cleaved PARP positive nuclei fraction [14] | cleaved PARP positive nuclei fraction [15] | cleaved PARP positive nuclei fraction [16] | cleaved PARP positive nuclei fraction [17] |
| --- | --- | --- | --- | --- | --- | --- | --- | --- | --- | --- | --- | --- | --- | --- | --- | --- | --- |
| Cn1c(=O)n(-c2ccc(C(C)(C)C#N)cc2)c2c3cc(-c4cnc5ccccc5c4)ccc3ncc21 + CNC(=O)c1cc(Oc2ccc(NC(=O)Nc3ccc(Cl)c(C(F)(F)F)c3)cc2)ccn1 [sorafenib] (first compound 0.004 µM, partner dose 0.4 µM) | 64.3% | 113% | 157% | 164% | 37% | 83.8% | 32.9% | 137% | 45.7% | 89.3% | 63.2% | 89.6% | 57.8% | 206% | 33.2% | 133% | 121% |
| Nc1ccn([C@@H]2O[C@H](CO)[C@@H](O)C2(F)F)c(=O)n1 [gemcitabine] + C#Cc1cccc(Nc2ncnc3cc(OCCOC)c(OCCOC)cc23)c1 [erlotinib] (first compound 0.0004 µM, partner dose 0.8 µM) | 129% | 122% | 201% | 74.9% | 434% | 140% | 198% | 196% | 54.2% | 170% | 99.4% | 188% | 253% | 103% | 85.3% | 110% | 170% |
| CN1CCN(c2ccc3nc(-c4c(N)c5c(F)cccc5[nH]c4=O)[nH]c3c2)CC1 [Dovitinib] + O=S(=O)(c1ccccc1)N(CC(F)(F)F)c1ccc(C(O)(C(F)(F)F)C(F)(F)F)cc1 [T0901317] (first compound 0.1 µM, partner dose 1.4 µM) | 18.7% | 139% | – | 75.9% | 150% | 109% | 43.9% | 149% | – | 57.9% | 49.2% | 242% | 105% | 49.9% | 45.4% | 180% | – |
| CS(=O)(=O)CCNCc1ccc(-c2ccc3ncnc(Nc4ccc(OCc5cccc(F)c5)c(Cl)c4)c3c2)o1 [lapatinib] + O=c1cc(-c2cccc3c2Sc2ccccc2S3)oc(N2CCOCC2)c1 [KU55933] (first compound 0.8 µM, partner dose 1 µM) | 20.6% | 86.5% | – | 169% | 128% | 179% | 22% | 144% | – | 296% | 147% | 133% | 98.4% | 98.1% | 111% | 140% | – |
| O=C(O)c1ccc2c(c1)nc(Nc1cccc(Cl)c1)c1ccncc12 + Cn1cc(/C=C2\C(=O)Nc3cccnc32)c2ccccc21 [GW441756] (first compound 0.4 µM, partner dose 0.4 µM) | 23.6% | 98.5% | – | 253% | 64.8% | 74.7% | 92.8% | 96.4% | – | 31.4% | 95.2% | 101% | 133% | 34.4% | 30.1% | 63.8% | – |
| CN1CCN(c2ccc3nc(-c4c(N)c5c(F)cccc5[nH]c4=O)[nH]c3c2)CC1 [Dovitinib] + Nc1ccn([C@@H]2O[C@H](CO)[C@@H](O)C2(F)F)c(=O)n1 [gemcitabine] (first compound 0.1 µM, partner dose 0.0004 µM) | 47.8% | 128% | 139% | 87% | 45.8% | 107% | 120% | 133% | 52.4% | 95.2% | 114% | 174% | 72.4% | 93.6% | 243% | 90.5% | 120% |
| Nc1nc(F)nc2c1ncn2[C@@H]1O[C@H](CO)[C@@H](O)[C@@H]1O [fludarabine] + Oc1nc(-c2ccc(C(F)(F)F)cc2)nc2c1CSCC2 [XAV939] (first compound 0.2 µM, partner dose 2 µM) | 24.1% | 296% | – | 158% | 104% | 93.1% | 103% | 53.5% | – | 101% | 143% | 91.3% | 141% | 56.3% | 79.1% | 106% | – |
| Nc1nc(F)nc2c1ncn2[C@@H]1O[C@H](CO)[C@@H](O)[C@@H]1O [fludarabine] + O=S(=O)(c1ccccc1)N(CC(F)(F)F)c1ccc(C(O)(C(F)(F)F)C(F)(F)F)cc1 [T0901317] (first compound 0.2 µM, partner dose 1.4 µM) | 44.7% | 96.1% | – | 83.2% | 154% | 86.5% | 94.5% | 90.9% | – | 42.2% | 88% | 80.7% | 111% | 50.9% | 156% | 116% | – |
| C[C@@H](Oc1cc(-c2cnn(C3CCNCC3)c2)cnc1N)c1c(Cl)ccc(F)c1Cl [Crizotinib] + COCC[n+]1c2c(n(Cc3cnccn3)c1C)C(=O)c1ccccc1C2=O [YM155] (first compound 0.2 µM, partner dose 0.0004 µM) | 77.2% | 50.1% | 202% | 75.4% | 342% | 87.4% | 61.1% | 113% | 142% | 64.1% | 122% | 129% | 121% | 488% | 136% | 235% | 82.3% |
| O=C(O)[C@@H]1[O][Sb](=[O])([O][Sb]2(=[O])[O][C@H]([C@H](O)CO)[C@H](O)[C@H](C(=O)O)[O]2)[O][C@H]([C@H](O)CO)[C@@H]1O (stereo partly drawn) [stibogluconate] + COc1cc2ncnc(Nc3ccc(Oc4ccccc4)cc3)c2cc1OC [SrcI1] (first compound 2 µM, partner dose 2 µM) | 39.5% | 92.8% | – | 81.5% | 98.3% | 97.9% | 33.1% | 108% | – | 115% | 74% | 182% | 108% | 49.5% | 169% | 100% | – |
| O=C(O)c1ccc2c(c1)nc(Nc1cccc(Cl)c1)c1ccncc12 + Cc1cc([N+](=O)[O-])ccc1NS(=O)(=O)c1cc(Cl)ccc1Cl [FH535] (first compound 0.4 µM, partner dose 1 µM) | 16.5% | 228% | – | 94.3% | 916% | 165% | 902% | 315% | – | 93.2% | 95% | 95% | 167% | 97.9% | 120% | 151% | – |
| O=C(O)[C@@H]1[O][Sb](=[O])([O][Sb]2(=[O])[O][C@H]([C@H](O)CO)[C@H](O)[C@H](C(=O)O)[O]2)[O][C@H]([C@H](O)CO)[C@@H]1O (stereo partly drawn) [stibogluconate] + O=S(=O)(c1ccccc1)N(CC(F)(F)F)c1ccc(C(O)(C(F)(F)F)C(F)(F)F)cc1 [T0901317] (first compound 2 µM, partner dose 1.4 µM) | 30.6% | 167% | – | 102% | 56% | 216% | 61.8% | 58.1% | – | 76.8% | 34.9% | 184% | 148% | 51.3% | 33.3% | 35% | – |
| Nc1ccn([C@@H]2O[C@H](CO)[C@@H](O)C2(F)F)c(=O)n1 [gemcitabine] + O=C(Nc1ccccc1)c1cc([N+](=O)[O-])ccc1Cl [GW9662] (first compound 0.0004 µM, partner dose 2 µM) | 38.6% | 87.1% | – | 122% | 184% | 145% | 195% | 227% | – | 72.6% | 116% | 48.4% | 111% | 118% | 135% | 154% | – |
| CS(=O)(=O)CCNCc1ccc(-c2ccc3ncnc(Nc4ccc(OCc5cccc(F)c5)c(Cl)c4)c3c2)o1 [lapatinib] + Nc1cccc2c1CN(C1CCC(=O)NC1=O)C2=O [lenalidomide] (first compound 0.8 µM, partner dose 1 µM) | 89.4% | 72.9% | 47.9% | 300% | 48.8% | 101% | 158% | 96.7% | 89.5% | 30.6% | 56.7% | 82.4% | 86.1% | 80.4% | 86.1% | 198% | 139% |
| CCCS(=O)(=O)Nc1ccc(F)c(C(=O)c2c[nH]c3ncc(Cl)cc23)c1F + OCc1c[nH]c2ccccc12 [Indole-3-carbinol] (first compound 0.08 µM, partner dose 0.8 µM) | 43.2% | 123% | 303% | 98.8% | 30.4% | 123% | 85.5% | 116% | 46% | 84.1% | 81.2% | 108% | 121% | 167% | 133% | 134% | 174% |

Some of the entries so far, as tab-separated lines.
SMILES	cleaved PARP positive nuclei fraction [1]	cleaved PARP positive nuclei fraction [2]	cleaved PARP positive nuclei fraction [3]	cleaved PARP positive nuclei fraction [4]	cleaved PARP positive nuclei fraction [5]	cleaved PARP positive nuclei fraction [6]	cleaved PARP positive nuclei fraction [7]	cleaved PARP positive nuclei fraction [8]	cleaved PARP positive nuclei fraction [9]	cleaved PARP positive nuclei fraction [10]	cleaved PARP positive nuclei fraction [11]	cleaved PARP positive nuclei fraction [12]	cleaved PARP positive nuclei fraction [13]	cleaved PARP positive nuclei fraction [14]	cleaved PARP positive nuclei fraction [15]	cleaved PARP positive nuclei fraction [16]	cleaved PARP positive nuclei fraction [17]
O=C(O)c1ccc2c(c1)nc(Nc1cccc(Cl)c1)c1ccncc12 + Cn1cc(/C=C2\C(=O)Nc3cccnc32)c2ccccc21 [GW441756] (first compound 0.4 µM, partner dose 0.4 µM)	23.6%	98.5%	–	253%	64.8%	74.7%	92.8%	96.4%	–	31.4%	95.2%	101%	133%	34.4%	30.1%	63.8%	–
CN1CCN(c2ccc3nc(-c4c(N)c5c(F)cccc5[nH]c4=O)[nH]c3c2)CC1 [Dovitinib] + Nc1ccn([C@@H]2O[C@H](CO)[C@@H](O)C2(F)F)c(=O)n1 [gemcitabine] (first compound 0.1 µM, partner dose 0.0004 µM)	47.8%	128%	139%	87%	45.8%	107%	120%	133%	52.4%	95.2%	114%	174%	72.4%	93.6%	243%	90.5%	120%
Nc1nc(F)nc2c1ncn2[C@@H]1O[C@H](CO)[C@@H](O)[C@@H]1O [fludarabine] + Oc1nc(-c2ccc(C(F)(F)F)cc2)nc2c1CSCC2 [XAV939] (first compound 0.2 µM, partner dose 2 µM)	24.1%	296%	–	158%	104%	93.1%	103%	53.5%	–	101%	143%	91.3%	141%	56.3%	79.1%	106%	–
Nc1nc(F)nc2c1ncn2[C@@H]1O[C@H](CO)[C@@H](O)[C@@H]1O [fludarabine] + O=S(=O)(c1ccccc1)N(CC(F)(F)F)c1ccc(C(O)(C(F)(F)F)C(F)(F)F)cc1 [T0901317] (first compound 0.2 µM, partner dose 1.4 µM)	44.7%	96.1%	–	83.2%	154%	86.5%	94.5%	90.9%	–	42.2%	88%	80.7%	111%	50.9%	156%	116%	–
